According to patent US5888504A, “Natural composition for combatting fungi” (Van den Bergh Foods Co., Division of Conopco, Inc., priority 1995, dated 1999):
Entries after “also recorded” stand apart in the source; their conditions may differ. Not every detail of the peptide structures is certain; ends, links or a residue may be inferred. Ends that are not written are not given here.

Test system: Saccharomyces cerevisiae
Experiment: Outgrowth of Saccharomyces cerevisiae cells in malt extract broth, microtitre plate, OD 620 nm
Format: cell-based
Conditions: polypeptide 0 to 20 μg/ml, no enzyme

FASLLGKALKALAKQ [polypeptide FASLLGKALKALAKQ, FASLLGKALKALAKQ]
effect on fungal outgrowth (time needed for outgrowth): No effect of the peptide on growth is observed; also recorded: no visible effect on fungal outgrowth
